No constants are given. Whether binding was seen depends on the method and setting. In cells and extracts the contact can be indirect. Here binding means that the protein was enriched with, or labelled near, the bait; the list need not be complete.
Molecular target: Y-box-binding protein 1 (YBX1), endogenous (mouse (endogenous in mouse spinal cord tissue; the species of the primary neurons is not stated)) (UniProt P62960)
Experiment: affinity purification with mass spectrometry; IP of YBX1, products separated by SDS-PAGE, Coomassie stained, target gel area analysed by MS; source of the sample not stated

Chains of the proteins cited; added tags and fusions are not shown.
UniProt P62960: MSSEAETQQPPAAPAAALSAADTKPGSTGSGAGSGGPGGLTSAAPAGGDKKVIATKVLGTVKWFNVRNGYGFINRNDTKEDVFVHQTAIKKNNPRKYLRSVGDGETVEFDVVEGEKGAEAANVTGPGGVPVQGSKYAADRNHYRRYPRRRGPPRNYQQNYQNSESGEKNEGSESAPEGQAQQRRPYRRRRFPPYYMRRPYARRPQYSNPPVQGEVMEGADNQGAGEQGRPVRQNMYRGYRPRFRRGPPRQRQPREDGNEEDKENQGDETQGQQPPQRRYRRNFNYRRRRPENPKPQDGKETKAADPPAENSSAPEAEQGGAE

binding: binds
B1: E3 ubiquitin ligase TRIM56, endogenous (protein, UniProt Q80VI1 1-734)
chain: MNSKVSSPTLLEALSSDFLACKICLEQLHTPKTLPCLHTYCQDCLAQLDIGGQVRCPECREIVPVPAEGVAAFKTNFFVNGLLDLVKARAPGDVHSGKPTCALCPLVGGKSSGGPATARCLDCADDLCQACADGHRCSRQTHKHRVVDLVGYRAGWYDEEARERQASQCPQHPGEALCFLCQPCSQLLCKDCRLGPHIDHPCLPLAEAVRSRKPGLEELLAGVDSNLVELEATRVAEKEALALLREQAASVGTQVEEAAERILKSLLAQKQEVLGQLRALVEAAEEATRERLTKIERQEQVAKAAAAFARRVLSLGLEAEILSLEGAITQRLRQLQDAPWTSGPTRCVLPQLELHPGLEDKNCHLLRLIFEEPKQSPKDSGKGGAGTQGGDEAQGQGDDRTKIGKQGGAQPLTPKEGKDQNPQEDDGVFIERGNRPNKKKKCKGRGKSVSREPSPILRPNLEGSGLLPRPVFSWSFPTRMPGDKRSPRITGLCPYGPQEILVADEQNRVLKRFSLNGDYKGTVQVPEGCSPCSVAALQNAVAFSANAKLYLVSPDGEIQWRRSLSLTQSSHAVAAMPCGDRVAVSVAGHVEVYKKDGSLATRFIPGGKASRGQRALVFLTTSPQGNFVGSDWQQNSVVFCDGLGQVIWEYKGPGLHGCQPGSVSVDKKGYIFLTLREVNKVVILDPKGSLLGDFLTAYHGLEKPRVTTMVDGKYLVVSLSNGTIHVFRVRFPDS
